Some of the results follow.
Assays:
Test in all cases: log2 fold change, soluble protein after heating vs DMSO (PISA); higher = thermal stabilisation; K562 lysate, 10 uM; active = over 0.2 and 3.5 SD of the protein, either way, in both replicates (recomputed)
[1] = compound: C1=CC2=NC=CN=C2C=C1/C=C/3\C(=O)NC(=O)S3
Outline: (§1)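 To prepare the extract, K562 pellets were dounce-homogenised in PBS pH 7.4 with 1 mM MgCl2, giving crude material at 1 mg/mL protein. This was treated with 10 μM compound for 30 min, then heated in aliquots for 3 min over 48°C-58°C before pooling and addition of NP-40 to 0.5% at 4°C. Centrifugation at 21,000xg for 90 min left soluble protein in the supernatant, which TMTpro 16plex LC-MS/MS quantified with equalised channel sums. Results are log-two fold changes in thermal stability compared with solvent controls, from duplicates.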

Sequences of proteins named here, by UniProt entry; tags and fusion partners are left off. A change or cut given only in a name is not applied to a line headed by its entry.
UniProt Q8TBK2: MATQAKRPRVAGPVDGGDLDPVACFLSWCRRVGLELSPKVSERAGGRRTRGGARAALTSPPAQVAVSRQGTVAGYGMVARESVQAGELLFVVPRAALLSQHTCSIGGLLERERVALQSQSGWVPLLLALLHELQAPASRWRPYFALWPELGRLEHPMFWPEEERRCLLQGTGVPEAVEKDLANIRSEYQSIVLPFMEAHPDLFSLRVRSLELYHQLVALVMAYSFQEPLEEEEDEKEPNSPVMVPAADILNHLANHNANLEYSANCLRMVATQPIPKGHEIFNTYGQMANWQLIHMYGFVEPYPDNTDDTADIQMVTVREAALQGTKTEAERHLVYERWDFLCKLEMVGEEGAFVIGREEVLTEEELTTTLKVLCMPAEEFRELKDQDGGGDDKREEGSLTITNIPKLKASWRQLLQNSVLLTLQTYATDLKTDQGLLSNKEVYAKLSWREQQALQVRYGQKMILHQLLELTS
UniProt Q96JX3: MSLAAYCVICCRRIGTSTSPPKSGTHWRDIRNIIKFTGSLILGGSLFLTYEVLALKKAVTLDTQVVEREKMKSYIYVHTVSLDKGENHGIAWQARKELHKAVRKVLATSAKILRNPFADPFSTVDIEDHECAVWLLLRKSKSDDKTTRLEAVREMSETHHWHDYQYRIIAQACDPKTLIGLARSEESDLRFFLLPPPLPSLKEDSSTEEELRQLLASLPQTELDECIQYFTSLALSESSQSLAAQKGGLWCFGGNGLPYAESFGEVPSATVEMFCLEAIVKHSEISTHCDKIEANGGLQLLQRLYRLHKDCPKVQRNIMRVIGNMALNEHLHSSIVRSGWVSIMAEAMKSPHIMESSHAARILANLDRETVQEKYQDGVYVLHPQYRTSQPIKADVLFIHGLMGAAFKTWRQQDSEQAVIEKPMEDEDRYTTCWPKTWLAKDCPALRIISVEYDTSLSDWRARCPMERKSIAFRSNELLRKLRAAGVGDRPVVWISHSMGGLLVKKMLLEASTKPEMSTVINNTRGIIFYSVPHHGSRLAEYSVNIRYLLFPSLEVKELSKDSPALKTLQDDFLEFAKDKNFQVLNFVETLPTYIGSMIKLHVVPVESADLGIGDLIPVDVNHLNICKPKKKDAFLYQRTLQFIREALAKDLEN
UniProt P01009, whole entry, looked up: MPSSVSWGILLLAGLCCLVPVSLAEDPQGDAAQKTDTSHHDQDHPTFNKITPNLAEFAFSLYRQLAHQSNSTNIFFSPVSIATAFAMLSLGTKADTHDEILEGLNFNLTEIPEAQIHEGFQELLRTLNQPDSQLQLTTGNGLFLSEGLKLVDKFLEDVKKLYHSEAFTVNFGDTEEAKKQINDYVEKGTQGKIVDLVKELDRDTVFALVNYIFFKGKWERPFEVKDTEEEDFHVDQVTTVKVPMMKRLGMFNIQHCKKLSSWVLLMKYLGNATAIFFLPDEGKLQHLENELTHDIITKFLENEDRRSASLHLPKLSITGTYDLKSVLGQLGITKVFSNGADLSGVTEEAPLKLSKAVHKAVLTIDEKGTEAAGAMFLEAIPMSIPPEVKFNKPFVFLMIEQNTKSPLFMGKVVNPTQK
UniProt Q15464: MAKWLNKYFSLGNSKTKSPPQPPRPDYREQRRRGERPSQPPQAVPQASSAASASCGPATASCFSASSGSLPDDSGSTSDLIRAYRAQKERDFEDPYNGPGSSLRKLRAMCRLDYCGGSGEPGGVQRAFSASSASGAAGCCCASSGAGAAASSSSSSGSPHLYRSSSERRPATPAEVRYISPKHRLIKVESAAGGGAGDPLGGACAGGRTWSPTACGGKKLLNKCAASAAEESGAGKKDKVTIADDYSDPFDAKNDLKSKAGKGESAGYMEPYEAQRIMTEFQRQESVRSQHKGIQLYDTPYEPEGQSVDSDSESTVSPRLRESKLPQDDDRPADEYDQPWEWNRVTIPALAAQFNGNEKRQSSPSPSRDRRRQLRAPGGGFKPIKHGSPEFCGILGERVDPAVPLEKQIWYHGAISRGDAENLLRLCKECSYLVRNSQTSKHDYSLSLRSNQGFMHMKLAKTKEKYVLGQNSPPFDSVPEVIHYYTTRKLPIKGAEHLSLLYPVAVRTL
UniProt Q9UHW9: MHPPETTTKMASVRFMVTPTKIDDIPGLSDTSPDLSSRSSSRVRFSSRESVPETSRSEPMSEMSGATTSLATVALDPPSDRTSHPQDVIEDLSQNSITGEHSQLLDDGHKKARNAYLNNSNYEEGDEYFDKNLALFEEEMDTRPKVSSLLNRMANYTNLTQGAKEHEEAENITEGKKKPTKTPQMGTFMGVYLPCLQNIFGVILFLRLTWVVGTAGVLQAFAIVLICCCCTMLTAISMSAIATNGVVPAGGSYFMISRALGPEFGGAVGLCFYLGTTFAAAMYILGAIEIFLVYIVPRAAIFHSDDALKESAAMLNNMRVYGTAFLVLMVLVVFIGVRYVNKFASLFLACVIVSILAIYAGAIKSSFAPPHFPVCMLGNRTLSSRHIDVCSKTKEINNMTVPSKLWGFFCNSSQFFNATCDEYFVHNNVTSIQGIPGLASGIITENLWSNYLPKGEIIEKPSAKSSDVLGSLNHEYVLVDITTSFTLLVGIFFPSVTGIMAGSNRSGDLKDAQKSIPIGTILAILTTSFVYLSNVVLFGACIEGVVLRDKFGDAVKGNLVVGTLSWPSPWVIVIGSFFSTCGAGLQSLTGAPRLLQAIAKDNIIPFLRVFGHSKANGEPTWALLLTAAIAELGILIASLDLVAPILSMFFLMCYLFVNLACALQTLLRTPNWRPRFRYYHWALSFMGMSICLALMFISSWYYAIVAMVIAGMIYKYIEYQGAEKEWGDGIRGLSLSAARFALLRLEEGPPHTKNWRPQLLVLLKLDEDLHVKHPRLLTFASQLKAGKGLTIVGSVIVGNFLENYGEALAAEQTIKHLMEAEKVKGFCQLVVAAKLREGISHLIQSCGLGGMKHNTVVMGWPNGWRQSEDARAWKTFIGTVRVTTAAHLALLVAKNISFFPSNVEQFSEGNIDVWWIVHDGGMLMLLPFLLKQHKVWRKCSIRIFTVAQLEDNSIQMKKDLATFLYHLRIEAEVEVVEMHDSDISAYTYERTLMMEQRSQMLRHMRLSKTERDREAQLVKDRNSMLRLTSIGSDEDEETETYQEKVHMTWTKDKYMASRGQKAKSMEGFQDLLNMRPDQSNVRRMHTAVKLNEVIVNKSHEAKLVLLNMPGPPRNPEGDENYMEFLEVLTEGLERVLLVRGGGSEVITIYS
UniProt Q8IYI0: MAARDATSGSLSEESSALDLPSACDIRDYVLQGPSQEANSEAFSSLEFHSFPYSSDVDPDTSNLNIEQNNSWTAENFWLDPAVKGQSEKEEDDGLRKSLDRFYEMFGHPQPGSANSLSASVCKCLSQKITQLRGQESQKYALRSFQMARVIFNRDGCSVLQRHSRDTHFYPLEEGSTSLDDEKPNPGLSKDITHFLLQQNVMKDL
UniProt Q9Y6P5: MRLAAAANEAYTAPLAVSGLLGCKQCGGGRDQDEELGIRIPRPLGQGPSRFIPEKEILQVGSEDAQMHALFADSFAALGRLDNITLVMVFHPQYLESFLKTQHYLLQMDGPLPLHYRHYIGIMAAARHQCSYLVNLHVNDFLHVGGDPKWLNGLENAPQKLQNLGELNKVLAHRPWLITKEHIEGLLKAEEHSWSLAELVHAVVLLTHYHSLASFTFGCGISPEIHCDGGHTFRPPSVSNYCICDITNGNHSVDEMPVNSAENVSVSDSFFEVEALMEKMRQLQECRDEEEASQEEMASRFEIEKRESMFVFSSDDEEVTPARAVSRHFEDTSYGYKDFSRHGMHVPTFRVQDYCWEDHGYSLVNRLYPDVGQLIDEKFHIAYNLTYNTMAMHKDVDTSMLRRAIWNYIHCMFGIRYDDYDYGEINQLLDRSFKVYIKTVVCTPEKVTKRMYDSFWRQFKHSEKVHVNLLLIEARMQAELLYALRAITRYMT
UniProt Q587I9: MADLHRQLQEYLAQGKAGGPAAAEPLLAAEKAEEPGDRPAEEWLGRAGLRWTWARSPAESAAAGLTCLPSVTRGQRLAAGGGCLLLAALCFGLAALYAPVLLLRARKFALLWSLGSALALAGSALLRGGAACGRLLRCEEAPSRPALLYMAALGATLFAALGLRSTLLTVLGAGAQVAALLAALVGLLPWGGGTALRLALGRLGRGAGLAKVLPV
UniProt Q8N196: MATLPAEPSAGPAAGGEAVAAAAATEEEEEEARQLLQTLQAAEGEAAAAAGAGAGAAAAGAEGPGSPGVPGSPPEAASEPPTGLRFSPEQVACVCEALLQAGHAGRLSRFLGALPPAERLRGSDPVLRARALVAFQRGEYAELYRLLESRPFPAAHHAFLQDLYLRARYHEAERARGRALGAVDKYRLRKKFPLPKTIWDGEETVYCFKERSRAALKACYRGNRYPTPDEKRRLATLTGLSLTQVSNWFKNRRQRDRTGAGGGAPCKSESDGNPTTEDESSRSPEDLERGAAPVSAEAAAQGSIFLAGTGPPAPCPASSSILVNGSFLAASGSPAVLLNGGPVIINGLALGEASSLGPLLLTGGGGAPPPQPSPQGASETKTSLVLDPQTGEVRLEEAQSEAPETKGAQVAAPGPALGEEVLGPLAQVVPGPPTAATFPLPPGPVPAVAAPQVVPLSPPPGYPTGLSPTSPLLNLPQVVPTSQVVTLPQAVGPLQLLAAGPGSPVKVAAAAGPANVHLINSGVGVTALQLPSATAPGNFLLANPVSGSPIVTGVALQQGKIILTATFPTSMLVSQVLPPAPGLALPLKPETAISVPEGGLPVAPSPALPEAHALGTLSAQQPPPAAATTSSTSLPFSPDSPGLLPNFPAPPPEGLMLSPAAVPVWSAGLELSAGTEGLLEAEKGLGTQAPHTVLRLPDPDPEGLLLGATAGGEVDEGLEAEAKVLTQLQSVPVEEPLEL
UniProt Q86VW0: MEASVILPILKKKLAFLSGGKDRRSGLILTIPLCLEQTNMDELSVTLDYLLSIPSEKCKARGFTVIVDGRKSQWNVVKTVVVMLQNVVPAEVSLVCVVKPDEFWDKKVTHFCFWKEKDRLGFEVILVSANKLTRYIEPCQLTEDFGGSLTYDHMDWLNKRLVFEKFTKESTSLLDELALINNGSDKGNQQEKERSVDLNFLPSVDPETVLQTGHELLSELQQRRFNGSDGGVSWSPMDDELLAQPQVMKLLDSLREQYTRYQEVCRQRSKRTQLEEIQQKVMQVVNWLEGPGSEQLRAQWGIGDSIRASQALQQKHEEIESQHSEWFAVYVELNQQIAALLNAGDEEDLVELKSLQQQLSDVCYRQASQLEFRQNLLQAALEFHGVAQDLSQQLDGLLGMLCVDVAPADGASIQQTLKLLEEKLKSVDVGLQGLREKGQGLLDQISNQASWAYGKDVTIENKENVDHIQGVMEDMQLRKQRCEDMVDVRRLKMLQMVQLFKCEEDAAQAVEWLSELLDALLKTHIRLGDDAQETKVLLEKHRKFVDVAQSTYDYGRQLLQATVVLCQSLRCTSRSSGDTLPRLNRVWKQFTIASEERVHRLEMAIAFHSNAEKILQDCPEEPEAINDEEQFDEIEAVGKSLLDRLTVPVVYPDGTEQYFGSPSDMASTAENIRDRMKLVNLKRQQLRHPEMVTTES
UniProt Q9HAT2: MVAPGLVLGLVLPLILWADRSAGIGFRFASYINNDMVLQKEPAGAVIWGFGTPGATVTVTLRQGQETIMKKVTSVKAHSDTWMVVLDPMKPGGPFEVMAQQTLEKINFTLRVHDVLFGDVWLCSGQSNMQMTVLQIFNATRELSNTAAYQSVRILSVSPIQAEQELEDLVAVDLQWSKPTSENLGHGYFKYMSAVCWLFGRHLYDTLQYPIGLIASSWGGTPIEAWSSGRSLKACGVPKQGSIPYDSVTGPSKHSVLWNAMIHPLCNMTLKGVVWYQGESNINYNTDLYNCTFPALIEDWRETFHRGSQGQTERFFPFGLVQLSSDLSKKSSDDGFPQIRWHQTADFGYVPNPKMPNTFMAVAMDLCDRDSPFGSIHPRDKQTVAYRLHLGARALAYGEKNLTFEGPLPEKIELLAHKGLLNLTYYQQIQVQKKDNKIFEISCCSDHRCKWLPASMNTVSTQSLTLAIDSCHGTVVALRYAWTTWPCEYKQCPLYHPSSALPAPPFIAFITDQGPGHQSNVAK
UniProt O14796: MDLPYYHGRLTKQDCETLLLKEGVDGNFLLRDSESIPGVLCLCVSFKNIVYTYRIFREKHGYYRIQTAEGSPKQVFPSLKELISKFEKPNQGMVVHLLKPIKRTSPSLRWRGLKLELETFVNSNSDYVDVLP
UniProt O75635: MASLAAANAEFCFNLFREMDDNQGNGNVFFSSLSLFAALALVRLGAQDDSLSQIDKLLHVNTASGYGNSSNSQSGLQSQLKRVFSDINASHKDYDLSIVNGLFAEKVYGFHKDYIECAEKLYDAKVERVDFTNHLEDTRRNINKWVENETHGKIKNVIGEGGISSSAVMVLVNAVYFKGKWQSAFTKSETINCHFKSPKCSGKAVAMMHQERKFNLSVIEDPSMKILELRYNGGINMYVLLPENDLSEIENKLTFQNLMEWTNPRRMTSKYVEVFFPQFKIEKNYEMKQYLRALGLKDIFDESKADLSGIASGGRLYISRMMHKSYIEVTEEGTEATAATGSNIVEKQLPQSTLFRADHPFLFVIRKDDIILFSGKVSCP

[2] = compound: C1=CC=C(C=C1)C2=NC(=C(N2)C3=CC=NC=C3)C4=CC(=C(C=C4)Cl)O
Outline: as §1

[3] = compound: C1CCN(C1)C(=O)NC2=CC=CC(=C2)NC3=NC=C(C(=N3)NCCC4=CN=CN4)Br
Outline: as §1

[4] = compound: C1CN(CCC1(CC2=CC=C(C=C2)Cl)N)C3=NC=NC4=C3C=CN4
Outline: as §1

IRAK-1-4 Inhibitor I = compound: C1COCCN1CCN2C3=CC=CC=C3N=C2NC(=O)C4=CC(=CC=C4)[N+](=O)[O-] [IRAK-1-4 Inhibitor I]
Outline: as §1

[5] = compound: C/C(=N\NC(=O)C1=CC(=CC=C1)S(=O)(=O)N2CCOCC2)/C3=C(C=CC(=C3)Cl)O
Outline: as §1

[6] = compound: C1=CC2=C(C=CC(=C2)/C=C\3/C(=O)NC(=NCC4=CC=CS4)S3)N=C1
Outline: as §1

[7] = compound: C1=CC=C2C(=C1)C3=NNC4=CC=CC(=C43)C2=O
Outline: as §1

erlotinib = compound: C#Cc1cccc(Nc2ncnc3cc(OCCOC)c(OCCOC)cc23)c1 [erlotinib]
Outline: as §1

[8] = compound: C1=CC(=CC=C1C2=NC3=C(N2)C=C(C=C3)C(=O)N)OC4=CC=C(C=C4)Cl
Outline: as §1

Measured: log2 fold change

SGO2 (UniProt Q562F6)
inactive: [1] -0.098 | [2] -0.108 | [3] -0.086 | [4] 0.153 | IRAK-1-4 Inhibitor I 0.152

SKIV2L (UniProt Q15477)
inactive: [5] 0.34 | [6] -0.097 | [7] 0.211

SETD6 (UniProt Q8TBK2)
inactive: erlotinib -0.142 | [8] -0.036 | [2] 0.058 | IRAK-1-4 Inhibitor I 0.138

SERAC1 (UniProt Q96JX3)
inactive: erlotinib 0.004 | [8] -0.235 | [1] -0.014 | [3] 0.123 | [4] 0.056

Two entries drawn at random from those above, as already listed:
SETD6 (UniProt Q8TBK2)
inactive: erlotinib -0.142 | [8] -0.036 | [2] 0.058 | IRAK-1-4 Inhibitor I 0.138

SKIV2L (UniProt Q15477)
inactive: [5] 0.34 | [6] -0.097 | [7] 0.211

Continued.

SERPINB5 (UniProt P36952)
inactive: erlotinib 0.395 | [8] -0.266 | [1] 0.263 | [2] 0.019 | IRAK-1-4 Inhibitor I -0.254

SERPINA7 (UniProt P05543)
inactive: [5] -0.107 | [6] -0.007 | [1] -0.189 | [7] -0.011 | [3] -0.1 | [4] 0.005

SERPINA1 (UniProt P01009)
inactive: [2] 0.863 | IRAK-1-4 Inhibitor I -0.335

SHB (UniProt Q15464)
inactive: erlotinib 0.003 | [8] 0.033 | [2] -0.014 | IRAK-1-4 Inhibitor I -0.067

SLC12A6 isoform 2 (UniProt Q9UHW9)
inactive: erlotinib 0.013 | [8] 0 | [2] -0.019 | [3] -0.139 | [4] -0.049 | IRAK-1-4 Inhibitor I 0.089

SERPINF2 (UniProt P08697)
inactive: [5] -0.069 | [6] -0.051 | [1] 0.044 | [7] -0.056 | [3] -0.095 | [4] 0.004

SLAIN2 (UniProt D6RIF6)
inactive: [2] 0.142 | IRAK-1-4 Inhibitor I 0.081

SIMC1 (UniProt Q8NDZ2)
inactive: [5] -0.116 | [6] -0.087 | [1] -0.097 | [7] 0.001 | [3] 0.072 | [4] -0.194

SERPINB13 (UniProt Q9UIV8)
inactive: [1] 0.388

SH2B1 (UniProt Q9NRF2)
inactive: erlotinib 0.067 | [8] 0.041 | [1] 0.015 | [2] 0.062 | IRAK-1-4 Inhibitor I 0.05

SERPINA12 (UniProt Q8IW75)
inactive: erlotinib 0.218 | [8] -0.409 | [1] 0.416 | [2] 0.319 | IRAK-1-4 Inhibitor I -0.213

SHLD1 (UniProt Q8IYI0)
inactive: [3] 0.194 | [4] 0.116

SIN3B (UniProt O75182)
inactive: [5] -0.167 | [6] -0.018 | [7] 0.046 | [3] -0.071 | [4] 0.132

SESN1 isoform 2 (UniProt Q9Y6P5)
inactive: erlotinib 0.084 | [8] 0.023 | [1] 0.077 | [3] 0.119 | [4] 0.127

SLC10A3 (UniProt P09131)
inactive: [5] 0.139 | [6] -0.034 | [7] -0.045 | [3] -0.001 | [4] -0.035

SHQ1 (UniProt Q6PI26)
inactive: erlotinib -0.133 | [8] 0.046 | [1] 0.055 | [2] -0.039 | IRAK-1-4 Inhibitor I -0.229

SFT2D3 (UniProt Q587I9)
inactive: erlotinib 0.038 | [8] -0.027 | [2] 0.023 | [3] -0.097 | [4] -0.079 | IRAK-1-4 Inhibitor I -0.11

SIX5 (UniProt Q8N196)
inactive: erlotinib -0.062 | [8] -0.05 | [1] -0.046 | [2] -0.034 | IRAK-1-4 Inhibitor I -0.141

SGSM3 isoform 2 (UniProt Q96HU1)
inactive: erlotinib 0.001 | [8] 0.007 | [2] 0.037 | IRAK-1-4 Inhibitor I 0.002

SF1 (UniProt H7C0N4)
inactive: [5] 0.036 | [6] 0.028 | [7] 0.199 | [3] -0.003 | [4] -0.075

SIAH1 isoform 2 (UniProt Q8IUQ4)
inactive: erlotinib 0.016 | [8] -0.052 | [2] 0.039 | IRAK-1-4 Inhibitor I 0.001

SESTD1 (UniProt Q86VW0)
inactive: [2] -0.198 | IRAK-1-4 Inhibitor I 0.181

SIAE (UniProt Q9HAT2)
inactive: [1] -0.053 | [2] -0.059 | [3] 0.065 | [4] 0.013 | IRAK-1-4 Inhibitor I 0.28

SIGIRR (UniProt Q6IA17)
inactive: [5] 0.113 | [6] 0.052 | [7] -0.071 | [3] 0.22 | [4] 0.26

SLC10A4 (UniProt Q96EP9)
inactive: erlotinib -0.004 | [8] 0.032 | [2] 0.115 | IRAK-1-4 Inhibitor I -0.288

SET isoform 3 (UniProt Q01105)
inactive: [3] 0.201 | [4] 0.047

SH2D1B (UniProt O14796)
inactive: [5] -1.02 | [6] 0.156 | [2] 0.035 | [7] -0.05 | [3] -0.05 | [4] -0.032 | IRAK-1-4 Inhibitor I 0.06

SIK3 (UniProt Q9Y2K2)
inactive: erlotinib -0.089 | [8] 0.094 | [2] 0.073 | [3] 0.503 | [4] 0.094 | IRAK-1-4 Inhibitor I -0.032

SERPINB7 (UniProt O75635)
inactive: [2] 0.206 | IRAK-1-4 Inhibitor I -0.156

SETD1B (UniProt Q9UPS6)
inactive: [5] -0.032 | [6] -0.05 | [1] -0.114 | [7] -0.019

SLC20A2 (UniProt Q08357)
inactive: [5] -0.05 | [6] -0.078 | [1] 0.078 | [2] 0.028 | [7] -0.005 | [3] 0.053 | [4] 0.011 | IRAK-1-4 Inhibitor I 0.035

SH2D3A (UniProt Q9BRG2)
inactive: [1] -0.28 | [2] -0.027 | IRAK-1-4 Inhibitor I -0.039

SLC16A3 (UniProt O15427)
inactive: [2] -0.085 | IRAK-1-4 Inhibitor I 0.053

Reference: the supplement of paper PMC10849652
